Reference: PubChem BioAssay AID504786 (Drosophila RNAi Screening Center, 2011)
In all, the deposit lists about 21,000 reagents; below is a random part of those that have a named target and a result. 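Primary screen; positive scores mean lost reporter signal, so the sign may be inverted from the usual convention.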 A plus sign joins genes that one reagent is predicted to hit.

- Test: 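Fly genes required for HIF-dependent transcription when hypoxia is mimicked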 (primary screen)
- Cell system: Drosophila S2 cells with a stable HIF luciferase reporter
- Reagent: long dsRNA against Drosophila genes, about 0.2 µg dsRNA per well of a 384-well plate
- Timing: three days of knock-down, then 20 h of DFO before reading
- Challenge: desferrioxamine (DFO) at 100 µM, an iron chelator that mimics hypoxia, for 20 h
- Measurement: 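HIF reporter luminescence in cells given 100 µM DFO for 20 h, using the mouse ldh-a hypoxia-response element, scored as per-plate z-scores; higher means greater loss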
- Direction: z-score: higher = stronger loss of HIF reporter signal

predicted target	amplicon	z-score, replicate 1	z-score, replicate 2	z-score, replicate 3	z-score, replicate 4
MED25	DRSC14483	3.3	4.4		
Trm1	DRSC02951	-0.3	-0.7		
CG10543	DRSC04081	-0.3	-0.1		
tsl	DRSC17090	-0.1	-0.4		
CG30323	DRSC07656	-0.3	0.1		
RabGGTb	DRSC00804	-0.4	-0.4		
Cog8	DRSC02961	-0.3	-0.1		
CG34253	DRSC09531	-0.4	-0.3		
aralar1	DRSC13987	0.5	-0.1		
aralar1	DRSC16901	-0.3	0		
Rsbp15	DRSC14176	0.2	0		
Pisd	DRSC15935	-0.3	-0.6		
CG1999	DRSC18199	-0.3	-0.1		
Tcs5	DRSC09774	-0.3	0.5		
Nos	DRSC03381	-0.4	0		
Nubp1	DRSC02639	-0.3	-0.2		
rpk	DRSC12386	-0.2	-0.3		
Ent3	DRSC09822	0.1	0		
eas	DRSC20329	-0.4	-0.3		
CG14219	DRSC19576	-0.2	-0.3		
CG33229	DRSC07863	-0.3	-0.1		
CG30325	DRSC05685	-0.4	-0.2		
Hmgs	DRSC06866	-0.3	0.3		
Su(var)205	DRSC03446	0.4	2.6		
Arr1	DRSC01867	0	0		
Ndc80	DRSC20221	-0.1	-0.2		
Achl	DRSC06665	-0.2	0		
Prtl99C	DRSC15049	-0.2	-0.2		
FMRFa	DRSC07428	-0.3	-0.1		
snama	DRSC04049	-0.6	-1.1		
CG11980	DRSC14456	-0.2	-0.4		
Sbat	DRSC00160	0.4	0.3		
Daao1	DRSC06131	-0.2	-0.4		
Psn	DRSC11743	-0.3	0.3		
CG11755	DRSC14374	-0.3	-0.2		
Snx17	DRSC02884	-0.3	-0.6		
snf	DRSC18835	0.4	0.8		
Ctf4	DRSC06380	-0.1	-0.1		
smid	DRSC11398	-0.4	-0.5		
CG13423	DRSC06386	-0.1	0.8		
lost	DRSC12002	-0.6	-0.2		
lost	DRSC12234	-0.3	-0.5	-0.1	-0.3
CG2493	DRSC02707	-0.1	-0.2		
CG5989	DRSC10565	0.1	-0.2		
CG15236	DRSC04970	-0.3	-0.5		
CG43689	DRSC18383	1.4	1.3		
SdhBL	DRSC20039	-0.3	-0.1		
CG33922	DRSC00050	-0.2	0.3		
CG42675	DRSC12157	-0.4	-0.7		
CG6277	DRSC16008	0	-0.6		
Ugt316A1	DRSC10376	-0.2	-0.1		
Nf1	DRSC16758	-0.3	0		
bero	DRSC03211	-0.4	-0.3		
CG8777	DRSC07263	-0.4	0.1		
Obp56h	DRSC06433	0.6	0.4		
hiro	DRSC08564	-0.2	0.3		
endos	DRSC10658	-0.1	-0.3		
eIF5	DRSC20165	0.3	1.9		
CG32650	DRSC19899	-0.2	-0.6		
qvr	DRSC05280	-0.1	-0.1		
CG4053	DRSC15538	-0.2	-0.2		
Diedel	DRSC14317	-0.2	-0.2		
Rpt3	DRSC20283	6.5	4.1		
CG31454	DRSC14365	-0.4	-0.6		
Ccp84Ag	DRSC12592	-0.4	-0.4		
CG13334	DRSC06369	-0.3	-0.4		
mats	DRSC13562	-0.7	-0.7		
mats	DRSC14702	-0.4	-1		
LUBEL	DRSC02141	-0.3	-0.7		
Noa36	DRSC16761	-0.3	0		

Continued (12 carried over from the part before).
predicted target	amplicon	z-score, replicate 1	z-score, replicate 2	z-score, replicate 3	z-score, replicate 4
CG32650	DRSC19899	-0.2	-0.6		
qvr	DRSC05280	-0.1	-0.1		
CG4053	DRSC15538	-0.2	-0.2		
Diedel	DRSC14317	-0.2	-0.2		
Rpt3	DRSC20283	6.5	4.1		
CG31454	DRSC14365	-0.4	-0.6		
Ccp84Ag	DRSC12592	-0.4	-0.4		
CG13334	DRSC06369	-0.3	-0.4		
mats	DRSC13562	-0.7	-0.7		
mats	DRSC14702	-0.4	-1		
LUBEL	DRSC02141	-0.3	-0.7		
Noa36	DRSC16761	-0.3	0		
CG31686 (retired record)	DRSC00102	-0.1	0.7		
CG8042	DRSC09676	-0.4	-0.5		
Nufip	DRSC10397	-0.3	-0.2		
tin	DRSC17083	0.2	0.5		
Eig71Ef	DRSC11153	-0.2	-0.4		
dlp	DRSC10281	0.1	1.1		
dlp	DRSC10472	-0.5	-1.5		
CG13133	DRSC02230	-0.2	-0.6		
Tbh	DRSC18723	-0.3	-0.1		
Mst33A	DRSC03371	-0.4	-0.4		
Rbp9	DRSC00416	-0.2	-0.3		
Rbp9	DRSC00779	-0.4	-0.6		
side-VIII	DRSC05880	-0.8	-0.2		
side-VIII	DRSC05883	3	3.8		
side-VIII	DRSC06157	0	0.4	-0.6	-0.4
CG17327	DRSC15225	-0.1	0.4		
CG4842	DRSC10453	-0.1	-1		
CG5071	DRSC15710	-0.2	0.2		
CG42237	DRSC19891	-0.2	-0.4		
CG31717	DRSC01121	-0.3	-0.3		
L2HGDH	DRSC02082	-0.3	-0.5		
ttm50	DRSC18587	-0.1	-0.5		
CG30148	DRSC06391	-0.2	-0.4		
Elal	DRSC16662	-0.2	-0.3		
CG3348	DRSC15480	-0.3	0.2		
Elba1	DRSC00276	-0.1	0		
Skeletor (retired record)	DRSC14905	-0.1	0.1		
Skeletor (retired record)	DRSC14906	-0.4	-0.6		
CG33255 (retired record) + hpRNA:CR32205	DRSC09610	-0.2	-0.3		
CG33255 (retired record) + hpRNA:CR32205	DRSC09611	-0.4	-0.1		
CG6567 + CG4565	DRSC15599	-0.3	-0.2		
TwdlU	DRSC12224	0	-0.5		
CG8366	DRSC07153	-0.2	0.5		
CG42656	DRSC12472	-0.3	-0.4		
CG42365	DRSC04266	-0.1	-0.1		
CG15253	DRSC01871	-0.1	-0.2		
